Among the data in PMC5900714 are binding values, retold here.

The chains behind the UniProt entries cited, without tags or fusion partners. Where a name states a change or a piece, a line headed by the entry shows the natural chain unless it says otherwise.
UniProt Q8C3P7: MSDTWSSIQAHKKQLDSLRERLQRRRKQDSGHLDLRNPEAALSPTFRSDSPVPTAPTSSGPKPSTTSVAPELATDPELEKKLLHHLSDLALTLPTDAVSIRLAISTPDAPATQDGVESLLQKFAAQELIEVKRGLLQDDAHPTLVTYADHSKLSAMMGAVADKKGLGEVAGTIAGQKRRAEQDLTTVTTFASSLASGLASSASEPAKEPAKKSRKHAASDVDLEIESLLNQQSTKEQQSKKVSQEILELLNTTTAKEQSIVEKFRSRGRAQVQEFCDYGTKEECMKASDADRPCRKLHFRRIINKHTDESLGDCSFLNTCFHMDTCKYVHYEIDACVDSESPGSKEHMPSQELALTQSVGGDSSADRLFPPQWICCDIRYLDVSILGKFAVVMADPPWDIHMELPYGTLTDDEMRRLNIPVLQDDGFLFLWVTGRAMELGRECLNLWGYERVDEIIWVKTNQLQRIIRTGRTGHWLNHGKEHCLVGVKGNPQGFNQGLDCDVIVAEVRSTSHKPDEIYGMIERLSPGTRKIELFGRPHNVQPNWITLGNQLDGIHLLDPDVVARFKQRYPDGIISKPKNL
UniProt Q9W1R5: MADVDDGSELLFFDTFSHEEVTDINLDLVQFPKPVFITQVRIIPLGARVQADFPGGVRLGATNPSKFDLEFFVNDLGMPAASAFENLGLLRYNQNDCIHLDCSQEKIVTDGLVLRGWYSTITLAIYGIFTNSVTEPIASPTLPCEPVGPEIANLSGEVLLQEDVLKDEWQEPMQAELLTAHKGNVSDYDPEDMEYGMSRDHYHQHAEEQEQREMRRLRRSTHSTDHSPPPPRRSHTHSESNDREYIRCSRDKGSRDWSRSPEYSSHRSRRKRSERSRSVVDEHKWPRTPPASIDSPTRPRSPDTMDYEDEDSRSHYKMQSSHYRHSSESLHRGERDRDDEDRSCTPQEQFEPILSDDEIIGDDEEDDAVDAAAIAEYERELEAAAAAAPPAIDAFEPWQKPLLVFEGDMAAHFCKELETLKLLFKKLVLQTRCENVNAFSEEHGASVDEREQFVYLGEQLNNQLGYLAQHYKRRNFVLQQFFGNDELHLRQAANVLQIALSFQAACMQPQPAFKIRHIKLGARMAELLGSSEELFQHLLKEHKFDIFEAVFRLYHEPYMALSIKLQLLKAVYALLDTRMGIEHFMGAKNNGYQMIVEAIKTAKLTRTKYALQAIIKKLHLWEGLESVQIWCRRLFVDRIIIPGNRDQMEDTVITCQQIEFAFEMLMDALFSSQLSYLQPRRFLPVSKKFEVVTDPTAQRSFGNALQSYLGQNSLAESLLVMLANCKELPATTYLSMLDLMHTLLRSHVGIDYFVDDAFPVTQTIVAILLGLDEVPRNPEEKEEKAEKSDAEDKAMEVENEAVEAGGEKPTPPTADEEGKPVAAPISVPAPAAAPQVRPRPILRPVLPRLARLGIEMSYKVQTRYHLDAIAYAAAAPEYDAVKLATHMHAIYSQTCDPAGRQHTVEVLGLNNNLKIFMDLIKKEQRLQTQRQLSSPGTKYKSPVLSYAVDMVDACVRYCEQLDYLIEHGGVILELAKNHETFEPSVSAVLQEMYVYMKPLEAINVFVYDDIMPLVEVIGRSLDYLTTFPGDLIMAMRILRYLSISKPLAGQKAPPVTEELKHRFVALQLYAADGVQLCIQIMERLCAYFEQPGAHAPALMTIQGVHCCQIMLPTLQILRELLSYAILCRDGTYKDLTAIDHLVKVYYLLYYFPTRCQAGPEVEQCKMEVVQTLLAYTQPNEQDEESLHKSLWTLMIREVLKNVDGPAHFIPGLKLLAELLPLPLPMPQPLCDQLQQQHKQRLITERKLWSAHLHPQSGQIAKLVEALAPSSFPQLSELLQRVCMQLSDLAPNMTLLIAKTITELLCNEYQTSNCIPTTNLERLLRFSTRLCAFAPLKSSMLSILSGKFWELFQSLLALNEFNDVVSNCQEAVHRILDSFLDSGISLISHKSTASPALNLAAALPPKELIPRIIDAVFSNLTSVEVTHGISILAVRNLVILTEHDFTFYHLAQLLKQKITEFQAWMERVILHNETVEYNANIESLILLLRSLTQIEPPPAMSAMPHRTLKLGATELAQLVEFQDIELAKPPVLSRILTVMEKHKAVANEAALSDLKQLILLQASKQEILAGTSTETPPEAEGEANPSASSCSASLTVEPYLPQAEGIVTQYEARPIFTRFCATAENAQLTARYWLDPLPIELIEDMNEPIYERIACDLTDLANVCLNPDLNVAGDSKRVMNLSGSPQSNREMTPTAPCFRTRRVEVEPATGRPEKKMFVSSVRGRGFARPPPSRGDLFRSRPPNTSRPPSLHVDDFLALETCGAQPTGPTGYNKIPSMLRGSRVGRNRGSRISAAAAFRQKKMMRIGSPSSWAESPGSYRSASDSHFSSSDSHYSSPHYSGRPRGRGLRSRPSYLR
UniProt E9Q784: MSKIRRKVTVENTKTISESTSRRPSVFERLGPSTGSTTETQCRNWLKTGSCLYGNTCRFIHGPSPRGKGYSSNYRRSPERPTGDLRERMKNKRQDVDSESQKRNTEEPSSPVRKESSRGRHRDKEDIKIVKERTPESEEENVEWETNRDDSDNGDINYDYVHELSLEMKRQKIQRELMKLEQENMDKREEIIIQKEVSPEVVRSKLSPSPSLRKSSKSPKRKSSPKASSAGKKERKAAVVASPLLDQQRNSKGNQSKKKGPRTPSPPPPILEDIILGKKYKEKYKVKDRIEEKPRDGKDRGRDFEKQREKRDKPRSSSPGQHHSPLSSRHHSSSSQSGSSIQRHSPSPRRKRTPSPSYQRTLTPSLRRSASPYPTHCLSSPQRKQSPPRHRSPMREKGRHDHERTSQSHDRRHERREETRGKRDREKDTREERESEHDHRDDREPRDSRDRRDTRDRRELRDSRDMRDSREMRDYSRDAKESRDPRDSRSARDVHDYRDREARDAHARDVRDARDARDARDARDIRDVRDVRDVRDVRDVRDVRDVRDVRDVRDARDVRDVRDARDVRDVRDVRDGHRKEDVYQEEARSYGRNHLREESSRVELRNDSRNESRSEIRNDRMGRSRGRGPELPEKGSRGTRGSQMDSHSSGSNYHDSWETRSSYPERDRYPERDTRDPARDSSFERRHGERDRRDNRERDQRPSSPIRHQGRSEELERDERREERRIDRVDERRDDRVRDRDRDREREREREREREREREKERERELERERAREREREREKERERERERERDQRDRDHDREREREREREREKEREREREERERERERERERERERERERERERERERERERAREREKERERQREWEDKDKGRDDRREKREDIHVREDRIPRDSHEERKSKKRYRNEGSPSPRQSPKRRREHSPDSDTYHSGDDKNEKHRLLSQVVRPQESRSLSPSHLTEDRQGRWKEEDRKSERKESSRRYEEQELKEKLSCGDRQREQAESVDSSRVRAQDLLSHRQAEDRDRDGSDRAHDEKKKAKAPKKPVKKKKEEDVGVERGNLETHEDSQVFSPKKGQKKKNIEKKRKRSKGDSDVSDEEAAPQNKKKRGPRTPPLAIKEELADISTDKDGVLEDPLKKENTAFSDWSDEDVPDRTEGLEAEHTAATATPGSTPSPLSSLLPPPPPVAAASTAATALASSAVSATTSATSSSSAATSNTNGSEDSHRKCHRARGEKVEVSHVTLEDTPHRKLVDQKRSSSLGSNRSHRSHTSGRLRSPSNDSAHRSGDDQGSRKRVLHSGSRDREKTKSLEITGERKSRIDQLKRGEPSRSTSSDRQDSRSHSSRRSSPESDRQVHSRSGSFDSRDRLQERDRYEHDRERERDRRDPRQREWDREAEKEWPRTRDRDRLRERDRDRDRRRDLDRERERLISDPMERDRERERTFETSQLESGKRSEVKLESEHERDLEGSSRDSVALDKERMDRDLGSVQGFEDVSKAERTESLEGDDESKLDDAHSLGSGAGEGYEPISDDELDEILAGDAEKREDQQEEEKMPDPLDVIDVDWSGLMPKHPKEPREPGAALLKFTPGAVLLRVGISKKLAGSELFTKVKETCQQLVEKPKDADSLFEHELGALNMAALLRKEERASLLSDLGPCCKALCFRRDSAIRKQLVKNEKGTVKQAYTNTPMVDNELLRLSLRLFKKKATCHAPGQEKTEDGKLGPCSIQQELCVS
UniProt A2AIV2: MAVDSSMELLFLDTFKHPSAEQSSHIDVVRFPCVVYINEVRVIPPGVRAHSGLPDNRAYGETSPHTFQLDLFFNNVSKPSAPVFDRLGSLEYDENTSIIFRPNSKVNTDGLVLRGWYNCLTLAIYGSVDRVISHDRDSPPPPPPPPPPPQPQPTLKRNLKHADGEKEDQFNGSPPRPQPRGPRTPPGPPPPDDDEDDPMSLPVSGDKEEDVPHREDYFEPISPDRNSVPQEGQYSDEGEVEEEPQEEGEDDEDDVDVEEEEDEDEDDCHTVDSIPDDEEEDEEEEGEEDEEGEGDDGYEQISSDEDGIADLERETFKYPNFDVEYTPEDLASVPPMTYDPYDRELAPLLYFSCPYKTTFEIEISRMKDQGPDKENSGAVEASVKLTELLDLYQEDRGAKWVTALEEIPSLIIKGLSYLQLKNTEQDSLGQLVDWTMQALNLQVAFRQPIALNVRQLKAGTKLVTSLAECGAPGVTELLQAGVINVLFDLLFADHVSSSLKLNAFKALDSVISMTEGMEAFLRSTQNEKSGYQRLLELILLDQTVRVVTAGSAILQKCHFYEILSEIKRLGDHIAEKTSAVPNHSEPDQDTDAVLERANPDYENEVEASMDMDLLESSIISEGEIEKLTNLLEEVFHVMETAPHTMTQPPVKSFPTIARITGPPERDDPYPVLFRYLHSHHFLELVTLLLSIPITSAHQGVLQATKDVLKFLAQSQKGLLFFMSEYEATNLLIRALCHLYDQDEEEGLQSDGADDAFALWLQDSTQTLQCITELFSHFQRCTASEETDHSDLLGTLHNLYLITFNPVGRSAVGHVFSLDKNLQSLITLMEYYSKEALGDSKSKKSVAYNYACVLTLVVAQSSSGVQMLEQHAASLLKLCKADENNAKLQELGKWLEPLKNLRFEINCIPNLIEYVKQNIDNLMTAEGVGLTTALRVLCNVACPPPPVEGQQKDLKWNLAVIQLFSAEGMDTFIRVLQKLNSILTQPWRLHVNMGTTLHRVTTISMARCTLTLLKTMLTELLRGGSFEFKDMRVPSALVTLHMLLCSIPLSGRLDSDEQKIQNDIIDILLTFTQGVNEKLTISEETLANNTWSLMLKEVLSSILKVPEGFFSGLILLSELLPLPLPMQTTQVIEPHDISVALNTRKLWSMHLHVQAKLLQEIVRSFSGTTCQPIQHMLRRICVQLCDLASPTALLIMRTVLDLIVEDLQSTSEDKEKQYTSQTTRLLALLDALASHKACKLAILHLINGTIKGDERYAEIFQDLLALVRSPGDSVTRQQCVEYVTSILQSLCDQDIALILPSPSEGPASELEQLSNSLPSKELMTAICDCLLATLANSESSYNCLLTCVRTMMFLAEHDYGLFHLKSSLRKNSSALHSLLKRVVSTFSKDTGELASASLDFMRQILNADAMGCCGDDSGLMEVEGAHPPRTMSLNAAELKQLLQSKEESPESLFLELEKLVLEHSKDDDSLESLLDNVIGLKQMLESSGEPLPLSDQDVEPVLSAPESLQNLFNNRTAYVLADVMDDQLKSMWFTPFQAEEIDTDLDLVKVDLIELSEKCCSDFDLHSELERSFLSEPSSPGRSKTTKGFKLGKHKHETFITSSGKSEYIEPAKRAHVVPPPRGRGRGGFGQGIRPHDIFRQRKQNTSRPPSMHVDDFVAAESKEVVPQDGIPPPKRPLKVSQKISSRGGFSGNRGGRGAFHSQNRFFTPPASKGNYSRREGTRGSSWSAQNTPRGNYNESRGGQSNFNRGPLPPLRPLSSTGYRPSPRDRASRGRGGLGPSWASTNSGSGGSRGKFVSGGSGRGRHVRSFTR

No constants are given. Whether binding was seen depends on the method and setting. Binding seen in cells or lysates may run through a third protein. These calls come from enrichment with a bait or labelling near it, and not all partners need be listed. For part of these data: No binding means not detected with the bait. Sequences can lack the tags named with a protein.

The target in assay [1] is T1, Myc-tagged Nito (Spenito) (D. melanogaster) (UniProt Q7KMJ6).
T1 sequence: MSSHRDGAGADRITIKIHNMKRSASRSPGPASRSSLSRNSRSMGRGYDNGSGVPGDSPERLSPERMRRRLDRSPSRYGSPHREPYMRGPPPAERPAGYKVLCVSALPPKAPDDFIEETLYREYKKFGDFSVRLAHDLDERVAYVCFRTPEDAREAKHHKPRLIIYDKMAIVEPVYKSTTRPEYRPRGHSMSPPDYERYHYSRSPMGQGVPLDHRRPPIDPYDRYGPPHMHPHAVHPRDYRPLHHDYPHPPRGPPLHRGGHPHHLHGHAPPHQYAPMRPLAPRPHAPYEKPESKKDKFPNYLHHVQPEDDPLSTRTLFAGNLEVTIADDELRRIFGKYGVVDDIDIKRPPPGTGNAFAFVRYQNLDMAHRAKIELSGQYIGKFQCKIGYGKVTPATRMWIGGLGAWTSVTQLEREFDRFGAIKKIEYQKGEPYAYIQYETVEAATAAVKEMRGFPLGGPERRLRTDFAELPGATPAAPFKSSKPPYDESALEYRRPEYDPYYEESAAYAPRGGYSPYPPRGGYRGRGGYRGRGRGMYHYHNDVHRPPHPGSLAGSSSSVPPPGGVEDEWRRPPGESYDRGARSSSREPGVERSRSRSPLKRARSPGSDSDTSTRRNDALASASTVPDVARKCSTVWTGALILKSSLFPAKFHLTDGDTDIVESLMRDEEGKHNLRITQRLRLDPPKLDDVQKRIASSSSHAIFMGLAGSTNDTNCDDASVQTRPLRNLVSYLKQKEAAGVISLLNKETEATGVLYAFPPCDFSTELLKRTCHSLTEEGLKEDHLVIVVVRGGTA
Kind of assay: affinity purification with mass spectrometry; SILAC: Myc-Nito or Myc alone transfected in heavy or light S2R+ cells (forward and reverse), anti-Myc immunoprecipitation, threshold 1.5-fold enrichment.

Assay [2] has as its target Mettl3 (methyltransferase-like 3), endogenously Flag-Avi-tagged, mouse (mouse (endogenous in mESCs)) (UniProt Q8C3P7). In words: affinity purification with mass spectrometry; TAP-LC-MS: endogenous Flag-Avi-Mettl3 from mESC lysate, Flag then streptavidin beads; NaCl up to 350 mM.
Assay [3] deals with T2, Rbm15, endogenously Flag-Avi-tagged (mouse (endogenous in mESCs)) (UniProt Q0VBL3).
T2 sequence: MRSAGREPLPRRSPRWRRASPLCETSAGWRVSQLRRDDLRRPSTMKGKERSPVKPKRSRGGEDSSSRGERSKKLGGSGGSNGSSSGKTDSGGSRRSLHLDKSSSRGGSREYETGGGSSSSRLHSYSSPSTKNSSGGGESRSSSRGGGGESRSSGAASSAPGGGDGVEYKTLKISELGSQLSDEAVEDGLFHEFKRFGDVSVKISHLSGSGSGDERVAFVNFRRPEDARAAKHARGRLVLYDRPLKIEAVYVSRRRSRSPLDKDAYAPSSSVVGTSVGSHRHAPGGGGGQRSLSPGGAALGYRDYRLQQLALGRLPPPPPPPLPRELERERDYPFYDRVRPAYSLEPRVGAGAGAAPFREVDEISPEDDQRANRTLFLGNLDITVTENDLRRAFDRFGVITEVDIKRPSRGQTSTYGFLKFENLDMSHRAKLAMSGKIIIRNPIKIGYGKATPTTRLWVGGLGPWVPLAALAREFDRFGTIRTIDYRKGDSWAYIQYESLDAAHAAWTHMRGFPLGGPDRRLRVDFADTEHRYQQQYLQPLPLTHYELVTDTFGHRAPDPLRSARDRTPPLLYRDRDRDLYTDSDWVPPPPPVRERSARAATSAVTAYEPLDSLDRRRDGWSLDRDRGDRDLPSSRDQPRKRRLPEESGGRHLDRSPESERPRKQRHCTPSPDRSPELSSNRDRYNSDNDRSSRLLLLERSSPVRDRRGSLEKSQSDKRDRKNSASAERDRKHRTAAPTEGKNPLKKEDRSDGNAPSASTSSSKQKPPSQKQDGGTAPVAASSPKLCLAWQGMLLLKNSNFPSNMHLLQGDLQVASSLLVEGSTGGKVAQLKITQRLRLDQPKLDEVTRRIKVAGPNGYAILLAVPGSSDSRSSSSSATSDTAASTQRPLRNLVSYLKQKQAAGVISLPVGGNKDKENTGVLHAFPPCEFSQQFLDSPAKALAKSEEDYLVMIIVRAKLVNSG
Kind of assay: affinity purification with mass spectrometry; TAP-LC-MS/MS: endogenous Flag-Avi-Rbm15 from wild-type mESC lysate on Flag M2 beads, 3xFlag elution, then streptavidin beads; 350 mM NaCl; parental cells as background control.

In assay [4] the target is Mettl3 (methyltransferase-like 3), endogenously Flag-Avi-tagged, mouse (mouse (endogenous in mESCs)) (UniProt Q8C3P7). In words: affinity purification with mass spectrometry; TAP-LC-MS: endogenous Flag-Avi-Mettl3 from mESC lysate, Flag then streptavidin beads; 500 mM NaCl.

In the case of “Virilizer (Vir), endogenous in S2R+ cells (from UniProt Q9W1R5 1-1854)”, in assay [1], the binding result is reported as “binds”. With “Zc3h13 (zinc finger CCCH domain-containing protein 13), mouse (from UniProt E9Q784 1-1729)”, the binding entry in assay [2] is recorded as “binds weakly”; in assay [3], “binds”; in assay [4], “no binding (only 500 mM NaCl)”. Regarding “Virma (Vir-like m6A methyltransferase-associated) (from UniProt A2AIV2 1-1811)”, the binding result in assay [3] is “binds”.

B1: Hakai (mouse) (protein, UniProt Q9JIY2 1-491)
chain: MDHTDNELQGTNSSGSLGGLDVRRRIPIKLISKQASKVKPAPRTQRTVSRMPAKAPQGDEEGFDYNEEQRYDCKGGELFGNQRRFPGHLFWDFKINILGEKDDTPVHFCDKCGLPIKVYGRMIPCKHVFCYDCAILHEKKGDKMCPGCSDPVQRIEQCTRGSLFMCSIVQGCKRTYLSQRDLQAHINHRHMRAGKPVTRASLENVHPPIAPPPTDIPDRFIMPPDKHHMSHIPPKQHIMMPPPPLQHVPHEHYNQPHEDIRAPPAELSMAPPPPRSVSQETFRISTRKHSNLITVPIQDDSSSGAREPPPPAPAPAHHHPEYQGQPVVSHPHHIMPPQQHYAPPPPPPPPISHPMPHPPQAAGTPHLVYSQAPPPPMTSAPPPITPPPGHIIAQMPPYMNHPPPGPPPPQHGGPPVTAPPPHHYNPNSLPQFTEDQGTLSPPFTQPGGMSPGIWPAPRGPPPPPRMQGPPSQTPLPGPHHPDQTRYRPYYQ
B1: the binding entry in assay [2] was “binds weakly”; in assay [3] it was “binds”; in assay [4], “no binding (only 500 mM NaCl)”.

B2: Flacc [Fl(2)d-associated complex component], endogenous in S2R+ cells (protein, UniProt Q9VWN4 1-1150)
chain: MEKKAKESLRRYKKAARHSATHSSSSDSTSDSDSGSSSYSSTDSEQGVGGVGVGVGVPGGAGGPGGSGSVHGHPHTHGHGHHPRSAERHHRKKKSSRRGGSSSGDEPSSSRRKRDKRDHVQKKLVAKRNHIKRKLKEARLKKRAAAALSGHVHRSLSPTTRAKLKKLAERKRLRAASKEQRERDKLRVVQRDRERDHHRLGSSRSPPSSSTTTTTKIRIHQDIVGKRQKSPGLGSGLGGGSSSSSSRMHHQLMSREKIIIQTRARGRTPSLERERERERERERERERERHDLSLRERDRRDRERERAEREAARDKERAEALARCQERQRERERLAREKLRRQEEEEGGKRGGPGRDLDLPPYGSRERSLDTVERERERERSGRHVRDKRELDPYEREQEYLEERHGHGLIDEMRRYRRRDLSPMPEHYAPRLRDPRELYSEEERERAYKRAYLDARYSSREREAWLEARELRERELQGREYRDLETEDTLYPDERERLIRDRERDRERERDRERERNIGPRGDFRPEWEREWEEEGAGGGPGGPSGTPGRPGGFVGGPKRGKPPAHAGGGPPSQQQHHSASEPDWDADERERERERERDRERERDREDRPDTGGGGAGGDRPSIKNEPAWLEHDQREKPRGWQQQSSNSGGDWRDNDDAPPAPSHPHPASPHHHVHPRGERGSGRGFRRGGHGHGDHGERPGYRSHPPPLMTLPVQPPGGYSRGFPHKRLPYGSGRDGAALGARDGGLPGSSTFLKKHTHAPLVSPTQTPLLNPLLNAAKPNAAAQASAVAAATTAVAAAKAAAQSAANATTNPGILAQVSKLNTVCIKQEDASEDSAGTPELGAQDSPTQSLNLNQSLSSEGNPVKQELIRTSAVEGELSEISDSDDDILNKTDKVRPKNELPTETEQEMDTNADEVKSEALHIVAGHPIKGEEGDEVLDFEEISDGELEEDARHKGIGDALGVDWQGLIAETRQQASDAQAAQQGVDRGTSAKQRWQPYRVLLDLGISFGMAGEGYARCVMEEARQQLLQEKEQGQQRELDGDEEPPAKIPSPLLDYREFLASQQQLEPLACVQMGLRSAAVERQRLVGNVCGPGSRALSARQDLRLRRQLCGLPARECEFPRSVPIVGEGLRNLAMQMFQRRLLDVK
Regarding B2, the binding result in assay [1] is “binds”.

B3: Hakai (Drosophila), endogenous in S2R+ cells (protein, UniProt M9PBE2 1-473)
chain: MDTEEVKRGRGRGRGTRARGRGRGRGRGRGKKIDDSSIADAAALAASSCAALEDSPGRLDASEDSVMQELDKDGELETPGALEEPLPHGALGAVAASGNMTPATQQPQVLQQVPPPVMSQTTISLSLARAVDMEADISQLEAPTFTTLSRGPPEPMLRLKWNHKVSLIGEKVLNPMIHCCDQCDKPILVYGRMIPCKHVFCLKCARAEPIKSCPRCTDKVLRVEQSGLGTVFMCTHGGSRYGSSGCRRTYLSQRDLQAHINHRHVAPQPPPLQPQPQLSAMAEQPKMTDLGGVGLGLELHKQRKLSESSVPISVSASIASRPVLSRLPLTGGVGNIGSIGSIPPPGSAAAAQNAIHGGHSTLTLANLTRINNANAQECHQGKASLHHTLKKGTPHQSESVADASYYSSVLASFGSAAGNPGSGPPGGGATAAAQPANPSGSHSAVGPGALIGGSTDAPTGGSSGNWQQSQYYR
Take B3: the binding result in assay [1] was “binds”.

B4: Rbm15, mouse, endogenous untagged (protein, UniProt Q0VBL3 1-962)
chain: T2 sequence
Regarding B4, the binding result was “binds weakly” in assay [2] and “no binding (only 500 mM NaCl)” in assay [4].
